From PubChem BioAssay (NCATS)
Most of the hits are listed elsewhere, so they are rarer here than in the full data. Records with an inconclusive call do not appear. Calls of active or inactive are those of the source. The call rests on the fitted dose curve; in most records, active means well fitted curve in the direction sought with a large enough effect; inconclusive means small, poorly fitted or top-dose-only effect, or another doubt; inactive means no such curve, though single readings can be large; an effect the other way counts as inactive or inconclusive.

Experiment: Cell Viability - N2a (AID 540);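 further: cells exposed to compound for 40 h at 37 °C; plate controls were DMSO alone for no effect and tamoxifen control for full effect; nearly all actives have a fitted effect of over 45% in size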
Settings: N2a mouse neuroblastoma cell viability; at 92.2 µM (top of the series)
Procedure, shortened: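 First, 1500 N2a cells per well incubate 5 hr at 37 °C; next, compounds are added and incubated 40 hr at 37 °C; finally CellTiter-Glo is added and luminescence read after 20 min, with AC50 derived by Hill modeling.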

SMILES | activity change, negative = cytotoxicity
Cc1ccc2ccccc2c1C | inactive: 0.275%
Oc1c(Cl)cc(Cl)cc1Cl | inactive: -7.14%
Cc1ccc(O)cc1C | inactive: -5.53%
O=[N+]([O-])c1ccccc1Cl | inactive: -3.97%

Experiment: Cell Viability - NIH 3T3 (AID 541);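 further: plate controls were DMSO alone for no effect and tamoxifen positive control for full effect; nearly all actives have a fitted effect of over 25% in size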
Settings: NIH 3T3 cell viability, qHTS; at 92.2 µM (top of the series)
Procedure, shortened: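 AC50 values reflect concentration-dependent loss of intracellular ATP in NIH 3T3 cells after 40 hr treatment in complete culture medium, quantified by luciferase-based luminescence.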

SMILES | activity change, negative = cytotoxicity
Cc1ccc2ccccc2c1C | inactive: 4.85%
Cc1ccc(O)cc1C | inactive: -27.2%
O=[N+]([O-])c1ccccc1Cl | inactive: -7.44%

Experiment: Cell Viability - HUV-EC-C (AID 542); further: on the % scale 0 is the no-effect control and ±100 the full control effect; nearly all actives have a fitted effect of over 35% in size
Settings: HUV-EC-C endothelial cell viability, qHTS; at 92.2 µM (top of the series)
Procedure, shortened: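 Decrease in cellular ATP, quantified by luciferase luminescence, reflects toxicity in normal human vascular endothelial HUV-EC-C cells given compound for 40 hr in complete culture medium. Values are AC50s from concentration-response curves.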

SMILES | activity change, negative = cytotoxicity
Cc1ccc2ccccc2c1C | inactive: 5.79%
Oc1c(Cl)cc(Cl)cc1Cl | inactive: 7.11%
Cc1ccc(O)cc1C | inactive: -15.2%
O=[N+]([O-])c1ccccc1Cl | inactive: -6.25%

Experiment: Cell Viability - H-4-II-E (AID 543); further: on the % scale 0 is the no-effect control and ±100 the full control effect; nearly all actives have a fitted effect of over 35% in size
Settings: H-4-II-E rat hepatoma viability; at 92.2 µM (top of the series)
Procedure, shortened: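 Here, cytotoxicity is measured in the rat hepatoma line H-4-II-E as loss of intracellular ATP after 40 hr compound treatment, detected by luciferase luminescence.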

SMILES | activity change, negative = cytotoxic
Cc1ccc2ccccc2c1C | inactive: 1.08%
Oc1c(Cl)cc(Cl)cc1Cl | inactive: -15.2%
Cc1ccc(O)cc1C | inactive: -7.94%
O=[N+]([O-])c1ccccc1Cl | inactive: -0.391%

Experiment: Cell Viability - SH-SY5Y (AID 544);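 further: 0% = DMSO alone and -100% = 100 µM tamoxifen; nearly all actives have a fitted effect of over 55% in size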
Settings: SH-SY5Y neuroblastoma cell viability; at 92.2 µM (top of the series)
Procedure, shortened: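 Cytotoxicity is scored as a concentration-dependent fall in intracellular ATP in human SH-SY5Y cells treated 40 hr in complete culture medium. Potency is expressed as AC50 from a Hill equation fit.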

SMILES | viability change, negative = cytotoxic
Cc1ccc2ccccc2c1C | inactive: -0.00573%
Oc1c(Cl)cc(Cl)cc1Cl | inactive: -25.1%
Cc1ccc(O)cc1C | inactive: -21.8%
O=[N+]([O-])c1ccccc1Cl | inactive: 4.6%

Experiment: Cell Viability - Renal Proximal Tubule (AID 545);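 further: 0% = DMSO only and -100% = 100 µM tamoxifen; nearly all actives have a fitted effect of over 40% in size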
Settings: renal proximal tubule cells viability, primary cells of rat origin; at 91.7 µM (top of the series)
Procedure, shortened: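 Luminescent ATP signal (CellTiter-Glo) served as the viability read-out after 40 hr compound exposure of freshly isolated rat proximal tubule cells at 37 °C. Concentration-dependent ATP loss was fitted with the Hill equation to give AC50.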

SMILES | activity change, negative = cytotoxicity
Cc1ccc2ccccc2c1C | inactive: -4.75%
Oc1c(Cl)cc(Cl)cc1Cl | inactive: -3.28%
Cc1ccc(O)cc1C | inactive: -5.07%
O=[N+]([O-])c1ccccc1Cl | inactive: 1.25%

Experiment: Cell Viability - Mesenchymal (AID 546);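 further: cells exposed to compound for 40 hours before reading; 0% = DMSO only and -100% = 100 µM tamoxifen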
Settings: mesenchymal cells viability, qHTS; at 91.7 µM (top of the series)
Excerpt: NIH Chemical Genomics Center [NCGC]
NIH Molecular Libraries Screening Centers Network [MLSCN]
National Institutes of Environmental Health Sciences [NIEHS]
National Toxicology Program [NTP]
We have developed a 1536-well cell-based assay for quantitative high throughput screening (qHTS) against a number of cell lines to determine in vitro cytotoxicity of small molecules. This particular assay uses the kidney mesenchymal cell line which is derived from normal human renal glomeruli.
NCGC Assay Protocol Summary:
The CellTiter-Glo luminescent cell viability assay (Promega) is a homogeneous method to measure the number of viable cells in culture. The end point readout of this assay is based on quantitation of intracellular ATP, an indicator of metabolic activity, using the luciferase reaction. Luciferase catalyzes the oxidation of beetle Luciferin to oxyluciferin and light in the presence of ATP. The luminescent signal is proportional to amount of ATP present.
Using the CellTiter-Glo luminescent cell viability assay, the amount of cellular ATP was measured in the kidney mesenchymal cell line with complete culture medium following compound treatment for 40 hours. The assay was performed in opaque white Kalypsys 1536-well plates. In the screen, tamoxifen and doxorubicin were used as positive controls. Library compounds were measured for their ability to cause acute toxicity in the cell line, as reflected by a decrease in intracellular ATP levels, in a concentration-dependent manner. […] AC50 values were determined from concentration-response data modeled with the standard Hill equation.
qHTS protocol for CellTiter Glo kidney mesenchymal cells cellular assay
[Step] [Parameter] [Value] [Description]
1. Reagent; 5 uL; 1000 kidney mesenchymal cells/well
2. Time; 5 hr; 37 °C incubation
4. Controls; 23 nL; Tamoxifen 0.34 uM to 100 uM & Doxorubicin 0.02 nM to 100 uM
5. Time; 40 hr; 37 °C incubation
6. Reagent; 5 uL; CellTiter Glo reagent
7. Time; 20 min; Room Temperature
8. Detection; Luminescence; Viewlux plate reader
Keywords: cell viability, cytotoxicity, Kidney mesenchymal cell line, luminescence, NTPHTS, NTPHTS_NCGC, NIEHS, EPA, DSSTox, MLSMR, MLSCN, NIH Roadmap, qHTS, NCGC

SMILES | activity change, negative = cytotoxicity
Cc1ccc2ccccc2c1C | inactive: 0.684%
Oc1c(Cl)cc(Cl)cc1Cl | inactive: -4.26%
Cc1ccc(O)cc1C | inactive: 0.459%
O=[N+]([O-])c1ccccc1Cl | inactive: 1.66%

Experiment: Cell Viability - LYMP2-001 (AID 921);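 further: cells exposed to compound for 24 h at 37 °C; 0% = DMSO only and full inhibition = tetraoctylammonium bromide control wells; nearly all actives have a fitted effect of over 70% in size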
Settings: LYMP2-001 lymphoblastoid cell viability; at 92.2 µM (top of the series)
Procedure, shortened: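 Steps: seed 2500 lymphoblastoid cells/well; 5 hr, 37 C; add compound; 24 hr, 37 C; CellTiter-Glo reagent, 30 min room temperature; read luminescence. Concentration-response modeled by Hill equation for AC50.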

SMILES | activity change, negative = cytotoxic
Cc1ccc2ccccc2c1C | inactive: -0.723%
Oc1c(Cl)cc(Cl)cc1Cl | inactive: 4.88%
Cc1ccc(O)cc1C | inactive: 14.1%

Experiment: Cell Viability - LYMP1-002 - Assay at 16 hr (AID 948);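 further: 0% = DMSO alone and full effect = 92 µM tetraoctylammonium bromide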
Settings: LYMP1-002 lymphoblastoid cell viability; at 92.2 µM (top of the series)
Procedure, shortened: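 Seed 2500 LYMP1-002 cells per well in complete medium and hold 5 hr at 37 C. Add compound across a concentration series and incubate 16 hr at 37 C. Add CellTiter-Glo, wait 30 min at room temperature, read luminescence.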

SMILES | activity change, negative = cytotoxicity
Cc1ccc2ccccc2c1C | inactive: 1.86%
Oc1c(Cl)cc(Cl)cc1Cl | inactive: -6.51%
Cc1ccc(O)cc1C | inactive: 2.53%
O=[N+]([O-])c1ccccc1Cl | inactive: -4.72%
